Data taken from PMC4125083.
No constants are given. Whether binding was seen depends on the method and setting. A result given as binding can be weak or reduced; the word gives no strength.

Molecular target: Full-length GCN-1 (1–2634) (C. elegans) (UniProt B3CJ34)
Assay: two-hybrid; GAL4 fusion constructs (GCN-1 in pGBKT7, ABCF-3 in pGADT7) in yeast strain PJ649A; growth for three days at 30°C on SD plates without tryptophan, leucine and histidine

binding: binds
Substance: Full-length ABCF-3 (1–712) (from UniProt Q20306)
